For the test, the target named is HA-p53 (human) (UniProt P04637). The test is described as follows: co-IP; p53HA overexpressed in HepG2 p53KO cells, 24 h growth or starvation medium, precipitated with anti-HA beads, SORBS1 detected by Western blot. (In general: A western blot detects proteins with antibodies after separation by electrophoresis.)

These are yes or no findings as the source states them, for the method shown. In cells and extracts the contact can be indirect. Some entries that bind do so weakly or less than the wild type.

B1: Sorbin and SH3 domain-containing protein 1 (SORBS1) (protein, UniProt Q9BX66 1-1292)
chain: MSSECDGGSKAVMNGLAPGSNGQDKATADPLRARSISAVKIIPVKTVKNASGLVLPTDMDLTKICTGKGAVTLRASSSYRETPSSSPASPQETRQHESKPGLEPEPSSADEWRLSSSADANGNAQPSSLAAKGYRSVHPNLPSDKSQDATSSSAAQPEVIVVPLYLVNTDRGQEGTARPPTPLGPLGCVPTIPATASAASPLTFPTLDDFIPPHLQRWPHHSQPARASGSFAPISQTPPSFSPPPPLVPPAPEDLRRVSEPDLTGAVSSTDSSPLLNEVSSSLIGTDSQAFPSVSKPSSAYPSTTIVNPTIVLLQHNREQQKRLSSLSDPVSERRVGEQDSAPTQEKPTSPGKAIEKRAKDDSRRVVKSTQDLSDVSMDEVGIPLRNTERSKDWYKTMFKQIHKLNRDTPEENPYFPTYKFPELPEIQQTSEEDNPYTPTYQFPASTPSPKSEDDDSDLYSPRYSFSEDTKSPLSVPRSKSEMSYIDGEKVVKRSATLPLPARSSSLKSSSERNDWEPPDKKVDTRKYRAEPKSIYEYQPGKSSVLTNEKMSRDISPEEIDLKNEPWYKFFSELEFGKPPPKKIWDYTPGDCSILPREDRKTNLDKDLSLCQTELEADLEKMETLNKAPSANVPQSSAISPTPEISSETPGYIYSSNFHAVKRESDGAPGDLTSLENERQIYKSVLEGGDIPLQGLSGLKRPSSSASTKDSESPRHFIPADYLESTEEFIRRRHDDKEKLLADQRRLKREQEEADIAARRHTGVIPTHHQFITNERFGDLLNIDDTAKRKSGSEMRPARAKFDFKAQTLKELPLQKGDIVYIYKQIDQNWYEGEHHGRVGIFPRTYIELLPPAEKAQPKKLTPVQVLEYGEAIAKFNFNGDTQVEMSFRKGERITLLRQVDENWYEGRIPGTSRQGIFPITYVDVIKRPLVKNPVDYMDLPFSSSPSRSATASPQFSSHSKLITPAPSSLPHSRRALSPEMHAVTSEWISLTVGVPGRRSLALTPPLPPLPEASIYNTDHLALSPRASPSLSLSLPHLSWSDRPTPRSVASPLALPSPHKTYSLAPTSQASLHMNGDGGVHTPSSGIHQDSFLQLPLGSSDSVISQLSDAFSSQSKRQPWREESGQYERKAERGAGERGPGGPKISKKSCLKPSDVVRCLSTEQRLSDLNTPEESRPGKPLGSAFPGSEAEQTERHRGGEQAGRKAARRGGSQQPQAQQRRVTPDRSQTSQDLFSYQALYSYIPQNDDELELRDGDIVDVMEKCDDGWFVGTSRRTKQFGTFPGNYVKPLYL
As to B1, the binding entry is “binds”.

Source of the values: publication PMC9151573.
